Drawing on PMC11231609, this text covers binding for 5 molecules.

Protein sequences, listed by entry. Tags and fused reporters are not part of them. Residues count along the entry.
UniProt Q16602, residues 23-461: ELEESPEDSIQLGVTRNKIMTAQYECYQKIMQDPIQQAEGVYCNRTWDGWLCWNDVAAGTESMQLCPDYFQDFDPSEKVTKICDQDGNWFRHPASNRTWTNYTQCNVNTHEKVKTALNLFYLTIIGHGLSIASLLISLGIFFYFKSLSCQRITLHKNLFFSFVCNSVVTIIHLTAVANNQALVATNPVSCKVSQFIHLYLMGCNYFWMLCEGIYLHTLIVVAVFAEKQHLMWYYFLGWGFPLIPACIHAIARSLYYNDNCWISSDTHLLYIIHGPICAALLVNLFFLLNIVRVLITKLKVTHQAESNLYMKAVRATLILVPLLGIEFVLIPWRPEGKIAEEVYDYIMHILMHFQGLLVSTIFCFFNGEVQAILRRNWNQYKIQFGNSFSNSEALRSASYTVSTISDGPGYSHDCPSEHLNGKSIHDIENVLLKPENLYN

Results are given in words; binding and its absence hold for the method and conditions named. In cells and extracts the contact can be indirect. Here binding means that the protein was enriched with, or labelled near, the bait; the list need not be complete.

This experiment addresses calcitonin receptor-like receptor (human (endogenous in HDLEC)) (UniProt Q16602). The experiment in a line: affinity purification with mass spectrometry; IP of endogenous CLR from precleared HDLEC RIPA lysate (600 ug protein) with rabbit anti-human CLR immune serum LN-1436, protein G magnetic beads, 4 C, washes in 50 mM Tris pH 7.4, 150 mM NaCl without detergent; on-bead digestion, label-free quantitative nano LC-MS/MS; control IP with preimmune serum of the same rabbit; four independent experiments.

B1: pantothenate kinase 4 (protein, UniProt Q9NVE7 1-773)
chain: MAECGASGSGSSGDSLDKSITLPPDEIFRNLENAKRFAIDIGGSLTKLAYYSTVQHKVAKVRSFDHSGKDTEREHEPPYEISVQEEITARLHFIKFENTYIEACLDFIKDHLVNTETKVIQATGGGAYKFKDLIEEKLRLKVDKEDVMTCLIKGCNFVLKNIPHEAFVYQKDSDPEFRFQTNHPHIFPYLLVNIGSGVSIVKVETEDRFEWVGGSSIGGGTFWGLGALLTKTKKFDELLHLASRGQHSNVDMLVRDVYGGAHQTLGLSGNLIASSFGKSATADQEFSKEDMAKSLLHMISNDIGQLACLHARLHSLDRVYFGGFFIRGHPVTMRTITYSINFFSKGEVQALFLRHEGYLGAIGAFLKGAEQDNPNQYSWGENYAGSSGLMSASPELGPAQRARSGTFDLLEMDRLERPLVDLPLLLDPPSYVPDTVDLTDDALARKYWLTCFEEALDGVVKRAVASQPDSVDAAERAEKFRQKYWNKLQTLRQQPFAYGTLTVRSLLDTREHCLNEFNFPDPYSKVKQRENGVALRCFPGVVRSLDALGWEERQLALVKGLLAGNVFDWGAKAVSAVLESDPYFGFEEAKRKLQERPWLVDSYSEWLQRLKGPPHKCALIFADNSGIDIILGVFPFVRELLLRGTEVILACNSGPALNDVTHSESLIVAERIAGMDPVVHSALQEERLLLVQTGSSSPCLDLSRLDKGLAALVRERGADLVVIEGMGRAVHTNYHAALRCESLKLAVIKNAWLAERLGGRLFSVIFKYEVPAE
In the case of B1, the binding result is “binds”.

B2: filamin A-interacting protein 1 like (protein, UniProt Q4L180 1-1135)
chain: MRSRGSDTEGSAQKKFPRHTKGHSFQGPKNMKHRQQDKDSPSESDVILPCPKAEKPHSGNGHQAEDLSRDDLLFLLSILEGELQARDEVIGILKAEKMDLALLEAQYGFVTPKKVLEALQRDAFQAKSTPWQEDIYEKPMNELDKVVEKHKESYRRILGQLLVAEKSRRQTILELEEEKRKHKEYMEKSDEFICLLEQECERLKKLIDQEIKSQEEKEQEKEKRVTTLKEELTKLKSFALMVVDEQQRLTAQLTLQRQKIQELTTNAKETHTKLALAEARVQEEEQKATRLEKELQTQTTKFHQDQDTIMAKLTNEDSQNRQLQQKLAALSRQIDELEETNRSLRKAEEELQDIKEKISKGEYGNAGIMAEVEELRKRVLDMEGKDEELIKMEEQCRDLNKRLERETLQSKDFKLEVEKLSKRIMALEKLEDAFNKSKQECYSLKCNLEKERMTTKQLSQELESLKVRIKELEAIESRLEKTEFTLKEDLTKLKTLTVMFVDERKTMSEKLKKTEDKLQAASSQLQVEQNKVTTVTEKLIEETKRALKSKTDVEEKMYSVTKERDDLKNKLKAEEEKGNDLLSRVNMLKNRLQSLEAIEKDFLKNKLNQDSGKSTTALHQENNKIKELSQEVERLKLKLKDMKAIEDDLMKTEDEYETLERRYANERDKAQFLSKELEHVKMELAKYKLAEKTETSHEQWLFKRLQEEEAKSGHLSREVDALKEKIHEYMATEDLICHLQGDHSVLQKKLNQQENRNRDLGREIENLTKELERYRHFSKSLRPSLNGRRISDPQVFSKEVQTEAVDNEPPDYKSLIPLERAVINGQLYEESENQDEDPNDEGSVLSFKCSQSTPCPVNRKLWIPWMKSKEGHLQNGKMQTKPNANFVQPGDLVLSHTPGQPLHIKVTPDHVQNTATLEITSPTTESPHSYTSTAVIPNCGTPKQRITILQNASITPVKSKTSTEDLMNLEQGMSPITMATFARAQTPESCGSLTPERTMSPIQVLAVTGSASSPEQGRSPEPTEISAKHAIFRVSPDRQSSWQFQRSNSNSSSVITTEDNKIHIHLGSPYMQAVASPVRPASPSAPLQDNRTQGLINGALNKTTNKVTSSITITPTATPLPRQSQITVEPLLLPH
As for B2, the binding entry is recorded as “binds”.

B3: ER-Golgi intermediate compartment (ERGIC) marker 53 (protein, UniProt P49257 31-510)
chain: DGVGGDPAVALPHRRFEYKYSFKGPHLVQSDGTVPFWAHAGNAIPSSDQIRVAPSLKSQRGSVWTKTKAAFENWEVEVTFRVTGRGRIGADGLAIWYAENQGLEGPVFGSADLWNGVGIFFDSFDNDGKKNNPAIVIIGNNGQIHYDHQNDGASQALASCQRDFRNKPYPVRAKITYYQNTLTVMINNGFTPDKNDYEFCAKVENMIIPAQGHFGISAATGGLADDHDVLSFLTFQLTEPGKEPPTPDKEISEKEKEKYQEEFEHFQQELDKKKEEFQKGHPDLQGQPAEEIFESVGDRELRQVFEGQNRIHLEIKQLNRQLDMILDEQRRYVSSLTEEISKRGAGMPGQHGQITQQELDTVVKTQHEILRQVNEMKNSMSETVRLVSGMQHPGSAGGVYETTQHFIDIKEHLHIVKRDIDNLVQRNMPSNEKPKCPELPPFPSCLSTVHFIIFVVVQTVLFIGYIMYRSQQEAAAKKFF
As for B3, the binding entry is “binds”.

B4: nucleoporin 93 (protein, UniProt Q8N1F7 1-819)
chain: MDTEGFGELLQQAEQLAAETEGISELPHVERNLQEIQQAGERLRSRTLTRTSQETADVKASVLLGSRGLDISHISQRLESLSAATTFEPLEPVKDTDIQGFLKNEKDNALLSAIEESRKRTFGMAEEYHRESMLVEWEQVKQRILHTLLASGEDALDFTQESEPSYISDVGPPGRSSLDNIEMAYARQIYIYNEKIVNGHLQPNLVDLCASVAELDDKSISDMWTMVKQMTDVLLTPATDALKNRSSVEVRMEFVRQALAYLEQSYKNYTLVTVFGNLHQAQLGGVPGTYQLVRSFLNIKLPAPLPGLQDGEVEGHPVWALIYYCMRCGDLLAASQVVNRAQHQLGEFKTWFQEYMNSKDRRLSPATENKLRLHYRRALRNNTDPYKRAVYCIIGRCDVTDNQSEVADKTEDYLWLKLNQVCFDDDGTSSPQDRLTLSQFQKQLLEDYGESHFTVNQQPFLYFQVLFLTAQFEAAVAFLFRMERLRCHAVHVALVLFELKLLLKSSGQSAQLLSHEPGDPPCLRRLNFVRLLMLYTRKFESTDPREALQYFYFLRDEKDSQGENMFLRCVSELVIESREFDMILGKLENDGSRKPGVIDKFTSDTKPIINKVASVAENKGLFEEAAKLYDLAKNADKVLELMNKLLSPVVPQISAPQSNKERLKNMALSIAERYRAQGISANKFVDSTFYLLLDLITFFDEYHSGHIDRAFDIIERLKLVPLNQESVEERVAAFRNFSDEIRHNLSEVLLATMNILFTQFKRLKGTSPSSSSRPQRVIEDRDSQLRSQARTLITFAGMIPYRTSGDTNARLVQMEVLMN
In the case of B4, the binding result is reported as “binds”.

B5: iron regulatory protein 1 (protein, UniProt P21399 1-889)
chain: MSNPFAHLAEPLDPVQPGKKFFNLNKLEDSRYGRLPFSIRVLLEAAIRNCDEFLVKKQDIENILHWNVTQHKNIEVPFKPARVILQDFTGVPAVVDFAAMRDAVKKLGGDPEKINPVCPADLVIDHSIQVDFNRRADSLQKNQDLEFERNRERFEFLKWGSQAFHNMRIIPPGSGIIHQVNLEYLARVVFDQDGYYYPDSLVGTDSHTTMIDGLGILGWGVGGIEAEAVMLGQPISMVLPQVIGYRLMGKPHPLVTSTDIVLTITKHLRQVGVVGKFVEFFGPGVAQLSIADRATIANMCPEYGATAAFFPVDEVSITYLVQTGRDEEKLKYIKKYLQAVGMFRDFNDPSQDPDFTQVVELDLKTVVPCCSGPKRPQDKVAVSDMKKDFESCLGAKQGFKGFQVAPEHHNDHKTFIYDNTEFTLAHGSVVIAAITSCTNTSNPSVMLGAGLLAKKAVDAGLNVMPYIKTSLSPGSGVVTYYLQESGVMPYLSQLGFDVVGYGCMTCIGNSGPLPEPVVEAITQGDLVAVGVLSGNRNFEGRVHPNTRANYLASPPLVIAYAIAGTIRIDFEKEPLGVNAKGQQVFLKDIWPTRDEIQAVERQYVIPGMFKEVYQKIETVNESWNALATPSDKLFFWNSKSTYIKSPPFFENLTLDLQPPKSIVDAYVLLNLGDSVTTDHISPAGNIARNSPAARYLTNRGLTPREFNSYGSRRGNDAVMARGTFANIRLLNRFLNKQAPQTIHLPSGEILDVFDAAERYQQAGLPLIVLAGKEYGAGSSRDWAAKGPFLLGIKAVLAESYERIHRSNLVGMGVIPLEYLPGENADALGLTGQERYTIIIPENLKPQMKVQVKLDTGKTFQAVMRFDTDVELTYFLNGGILNYMIRKMAK
With B5, the binding entry was “binds”.
